For part of these data: HELM strings list residues between dots; [ac] is acetyl, [am] amide, other brackets name non-standard units. Bridges are numbered along the chain shown (N, C = ends).
Key:
Conditions in all cases: whole synthesis, scale of the general procedure 250 mg resin (0.29 mmol/g) or 500 mg resin (0.22-0.31 mmol/g)
[1] = general procedure: Fmoc solid-phase peptide synthesis; TentaGel S-RAM-Lys(Boc)Fmoc; preformed HObt esters generated by means of DIC
[2] = general procedure: Fmoc solid-phase peptide synthesis; TentaGel S-NH2; preformed HObt esters generated by means of DIC
[3] = general procedure: Fmoc solid-phase peptide synthesis; NovaSyn TG; preformed HObt esters generated by means of DIC
[4] = general procedure: Fmoc solid-phase peptide synthesis; TentaGel S-PHB-Lys(Boc)Fmoc; preformed HObt esters generated by means of DIC
[5] = general procedure: Fmoc solid-phase peptide synthesis; NovaSyn TG resin; preformed HObt esters generated by means of DIC
[6] = general procedure: Fmoc solid-phase peptide synthesis; TentaGel S-RAM; preformed HObt esters generated by means of DIC

For H-Aib-His-2-D-Nal-D-Phe-Lys-(Lys)6(-NH2, the “final HPLC purity” value [1] was “better than 90%” and the isolated yield [1] was 35%.
With “PEPTIDE1{K.K.K.K.K.K.G.G.T.Y.S.C.H.F.G.P.L.T.W.V.C.K.P.Q.G.G}$PEPTIDE1,PEPTIDE1,12:R3-21:R3$$$V2.0” the “final HPLC purity” value [2] was “better than 98%” and the isolated yield [2] was 12%.
With “H-Arg-Pro-Lys-Pro-Gln-Gln-Phe-Phe-Gly-Leu-Met-Lys6-OH” the “crude HPLC purity” value [3] was “better than 98%” and the crude yield [3] was 80%.
For H-Tyr-Gly-Gly-Phe-Leu-Glu6-OH, the “crude HPLC purity” value [3] was “better than 90%” and the crude yield [3] was 76%.
For “PEPTIDE1{Y.G.G.F.L.[Dpr].[Dpr].[Dpr].[Dpr].[Dpr].[Dpr]}$$$$V2.0”, the “final HPLC purity” value [2] was “better than 98%” and the isolated yield [2] was 22%.
In the case of “H-GGTYSCHFGPLTWVCKPQGGKKKKKK-OH (disulfide 6-15; SMILES CC(C)C[C@@H]1NC(=O)[C@@H]2CCCN2C(=O)CNC(=O)[C@H](Cc2ccccc2)NC(=O)[C@H](Cc2c[nH]cn2)NC(=O)[C@@H](NC(=O)[C@H](CO)NC(=O)[C@H](Cc2ccc(O)cc2)NC(=O)[C@@H](NC(=O)CNC(=O)CN)[C@@H](C)O)CSSC[C@@H](C(=O)N[C@@H](CCCCN)C(=O)N2CCC[C@H]2C(=O)N[C@@H](CCC(N)=O)C(=O)NCC(=O)NCC(=O)N[C@@H](CCCCN)C(=O)N[C@@H](CCCCN)C(=O)N[C@@H](CCCCN)C(=O)N[C@@H](CCCCN)C(=O)N[C@@H](CCCCN)C(=O)N[C@@H](CCCCN)C(=O)O)NC(=O)[C@H](C(C)C)NC(=O)[C@H](Cc2c[nH]c3ccccc23)NC(=O)[C@H]([C@@H](C)O)NC1=O)”, the “final HPLC purity” value [4] is reported as “better than 98%” and the isolated yield [4] is reported as 27%.
In the case of “H-GGTYSCHFGPLTWVCKPQGG-OH (disulfide 6-15; SMILES CC(C)C[C@@H]1NC(=O)[C@@H]2CCCN2C(=O)CNC(=O)[C@H](Cc2ccccc2)NC(=O)[C@H](Cc2c[nH]cn2)NC(=O)[C@@H](NC(=O)[C@H](CO)NC(=O)[C@H](Cc2ccc(O)cc2)NC(=O)[C@@H](NC(=O)CNC(=O)CN)[C@@H](C)O)CSSC[C@@H](C(=O)N[C@@H](CCCCN)C(=O)N2CCC[C@H]2C(=O)N[C@@H](CCC(N)=O)C(=O)NCC(=O)NCC(=O)O)NC(=O)[C@H](C(C)C)NC(=O)[C@H](Cc2c[nH]c3ccccc23)NC(=O)[C@H]([C@@H](C)O)NC1=O)”, the “final HPLC purity” value [2] is reported as “better than 98%” and the isolated yield [2] is reported as 22%.
In the case of PTH-(Lys-Glu)3, the “final HPLC purity” value ([5]; HPLC) is reported as “better than 98%” and the isolated yield [5] is reported as 28%.
With “PEPTIDE1{K.K.K.K.K.K.S.V.S.E.I.Q.L.M.H.N.L.G.K.H.L.N.S.M.E.R.V.E.W.L.R.K.K.L.Q.D.V.H.N.F}$$$$V2.0” the “final HPLC purity” value [2] was “better than 90%” and the isolated yield [2] was 6.2%.
In the case of H-RPKPQQFFGLMKKKKKK-NH2, the “final HPLC purity” value [1] is reported as “better than 98%” and the isolated yield [1] is reported as 17.2%.
For H-(Lys)6-Aib-His-2-D-Nal-D-Phe-Lys-NH2, the “crude HPLC purity” value [6] was “better than 95%” and the crude yield [6] was 19%.
With “PEPTIDE1{Y.G.G.F.L.K.K.K.K.K.K.K.K.K.K}$$$$V2.0” the “final HPLC purity” value [4] was “better than 98%” and the isolated yield [4] was 7.1%.
For “PEPTIDE1{R.P.K.P.Q.Q.F.F.G.L.M.[am]}$$$$V2.0”, the “final HPLC purity” value [6] was “better than 98%” and the isolated yield [6] was 12.3%.
In the case of PEPTIDE1{W.A.G.G.D.A.S.G.E}$$$$V2.0, the “crude HPLC purity” value [3] is reported as “better than 98%” and the crude yield [3] is reported as 78%.
For “PEPTIDE1{H.A.E.G.T.F.T.S.D.V.S.S.Y.L.E.G.Q.A.A.K.E.F.I.A.W.L.V.K.G.R}$$$$V2.0”, the “final HPLC purity” value [2] was “better than 98%” and the isolated yield [2] was 8.7%.
With “PEPTIDE1{S.V.S.E.I.Q.L.M.H.N.L.G.K.H.L.N.S.M.E.R.V.E.W.L.R.K.K.L.Q.D.V.H.N.F.K.K.K.K.K.K}$$$$V2.0” the “final HPLC purity” value [4] was “better than 98%” and the isolated yield [4] was 5.3%.
In the case of H-Tyr-Gly-Gly-Phe-Leu-Lys6-OH, the “crude HPLC purity” value [3] is reported as “better than 98%” and the crude yield [3] is reported as 84%.
In the case of H-Aib-His-2-D-Nal-D-Phe-Lys-NH2, the “crude HPLC purity” value [6] is reported as “better than 95%” and the crude yield [6] is reported as 21%.
In the case of “PEPTIDE1{Y.G.G.F.L.[Dbu].[Dbu].[Dbu].[Dbu].[Dbu].[Dbu]}$$$$V2.0”, the “final HPLC purity” value [2] is reported as “better than 90%” and the isolated yield [2] is reported as 22%.
For “pGlu-His-Trp-Ser-Tyr-Gly-Leu-Arg-Pro-GIy-NH2”, the “crude HPLC purity” value [6] was “better than 95%” and the crude yield [6] was 28%.
In the case of “PEPTIDE1{S.V.S.E.I.Q.L.M.H.N.L.G.K.H.L.N.S.M.E.R.V.E.W.L.R.K.K.L.Q.D.V.H.N.F}$$$$V2.0”, the “final HPLC purity” value [2] is reported as “better than 98%” and the isolated yield [2] is reported as 6.1%.
For H-KKKKKKYGGFL-OH, the “crude HPLC purity” value [3] was “better than 98%” and the crude yield [3] was 89%.
With PEPTIDE1{Y.G.G.F.L.K.K.E.E.E.K}$$$$V2.0 the “final HPLC purity” value [4] was “better than 90%” and the isolated yield [4] was 60%.
With H-WAGGDASGEKEKEKE-OH the “crude HPLC purity” value [3] was “better than 98%” and the crude yield [3] was 91%.
In the case of “H-(Lys)6-Gln-His-Trp-Ser-Tyr-Gly-Leu-Arg-Pro-Gly-NH2”, the “crude HPLC purity” value [6] is reported as “better than 95%” and the crude yield [6] is reported as 20%.
In the case of H-KKKKKKRPKPQQFFGLM-NH2, the “final HPLC purity” value [6] is reported as “better than 98%” and the isolated yield [6] is reported as 10.3%.
For “PEPTIDE1{K.K.K.K.K.K.Y.G.G.F.L.K.K.K.K.K.K}$$$$V2.0”, the “crude HPLC purity” value [3] was “better than 98%” and the crude yield [3] was 90%.
In the case of “PEPTIDE1{Y.G.G.F.L.[Orn].[Orn].[Orn].[Orn].[Orn].[Orn]}$$$$V2.0”, the “final HPLC purity” value [2] is reported as “better than 90%” and the isolated yield [2] is reported as 20%.
For “Glu-His-Trp-Ser-Tyr-Gly-Leu-Arg-Pro-Gly-Lys6 OH”, the “final HPLC purity” value [3] was “better than 98%” and the isolated yield [3] was 37%.
With “pGlu-His-Trp-Ser-Tyr-Gly-Leu-Arg-Pro-Gly-(Lys-Glu)3 OH” the “final HPLC purity” value [3] was “better than 98%” and the isolated yield [3] was 43%.
In the case of “PEPTIDE1{H.A.E.G.T.F.T.S.D.V.S.S.Y.L.E.G.Q.A.A.K.E.F.I.A.W.L.V.K.G.R.K.K.K.K.K.K}$$$$V2.0”, the “final HPLC purity” value [4] is reported as “better than 98%” and the isolated yield [4] is reported as 11%.
With “H-Trp-Ala-Gly-Gly-Asp-Ala-Ser-Gly-Glu-Glu6-OH” the “crude HPLC purity” value [3] was “better than 98%” and the crude yield [3] was 80%.
For PEPTIDE1{Y.G.G.F.L.K.E.E.E.E.K}$$$$V2.0, the “final HPLC purity” value [4] was “better than 98%” and the isolated yield [4] was 65%.

— patent US7414107B2 (priority 1998, dated 2008)
